Drawing on PubChem BioAssay AID493014 (National Center for Advancing Translational Sciences (NCATS), 2011), this text covers AC50 for 62 compounds.

A short description of the experiment: qHTS Assay to Find Inhibitors of Chronic Active B-Cell Receptor Signaling. As to conditions: ABC-DLBCL IkBa-CBG/CBR reporter, luminescence ratio (green luciferase fused to IkBa over red control in TMD8 lymphoma cells), 4 h. In outline:
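Compounds up to 46 uM were incubated four hours with TMD8 cells whose green CBG68 luciferase is fused to IkappaBalpha; red CBR luminescence normalised the signal, and concentration-effect curves were fitted to fusion, red and ratio data.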
A general note: Quantitative high-throughput screening tests each substance at several concentrations.

Setting [1] is: measured here: CBR red luminescence, cell number.
The mark [2] stands for this setting: measured here: IkBa-CBG green luminescence.

SMILES strings stand for the structures. Some of the results follow. Shown are side measurements of this screen, not its main read-out; they come without a call. Compounds called inactive in the main read-out are mostly missing here. Words in brackets tell the shape of the fitted curve; partial curves, single points and poor fits give uncertain potencies.

What is called AC50 is the midpoint of the concentration-response curve, whichever way the signal moves. As for `C=C(C)CSc1nnc(-c2ccc(OC)cc2)n1N`, the AC50 under setting [1] was 11.2 µM [rising, partial curve]. `COc1ccc(N(Cc2ccccc2)N=O)cc1`: under setting [1], the AC50 was 17.8 µM [rising, single point]. For `Cc1ccccc1NC(=O)CCl`, under setting [1], the AC50 is 22.4 µM [falling, single point]. Still for that read-out and setting: the figure for `Cc1cc(C)cc(NC(=O)CN2C(=O)CN=C(c3ccccc3)c3cc(Cl)ccc32)c1` is 1.41 µM [rising, partial curve, poor fit]; for `CC/C(=N\NC(=O)c1ccccc1Cl)c1c(O)n(C2CCCCC2)c(=O)[nH]c1=O` it is 1.26 µM [falling, partial curve, poor fit]; for `CC1CCC/C=C/C2CC(O)CC2C(O)/C=C/C(=O)O1` (stereo not drawn) it is 0.206 µM [falling, full curve, poor fit]. On to `COc1c(C)cc(Br)cc1C(=O)Nc1ccc(Cc2ccncc2)cc1`, for which the AC50 under setting [1] was 35.5 µM [falling, single point]. Consider `Cc1ccc(N2C(=O)NC(=O)/C(=C/C=C/c3ccco3)C2=O)cc1`, for which the AC50 is, setting by setting: under setting [1], 29.1 µM [rising, single point]; under setting [2], 29.1 µM [falling, single point]. In the case of `CCCCCCOC(=O)c1ccccc1N`, the AC50 under setting [1] is 0.517 µM [rising, full curve, poor fit]. `CC1(C)CN=C(Nc2ccc(F)c(Cl)c2)S1`: under setting [1], the concentration at half-maximal activity (AC50) was 35.5 µM [rising, single point]. Regarding `Nc1ccccc1C(=O)OCC(=O)c1ccc2c(c1)OCCO2`, the AC50 under setting [1] was 11.2 µM [falling, partial curve]. `CCCCC(=O)N/N=C/c1c(O)n(CCCC)c(=S)[nH]c1=O`: the AC50 under setting [1] is 0.562 µM [rising, partial curve, poor fit]. `Cc1ccccc1-n1c(O)c(/C=N/c2nccs2)c(=O)[nH]c1=O`: the AC50 under setting [1] was 0.708 µM [falling, full curve, poor fit]. Regarding `COc1ccc2c(c1OC)C(=O)OC2c1c(O)n(Cc2ccc(F)cc2)c(=O)[nH]c1=O` (stereo not drawn), the AC50 reads like this: under setting [1], 1.64 µM [falling, partial curve, poor fit]; under setting [2], 2.31 µM [rising, partial curve, poor fit]. As to `CC1C(OC(=O)CCC(=O)NC(C)(C)CO)O[C@H]2OC3(C)CC[C@H]4[C@H](C)CCC1C24OO3` (stereo partly drawn), the AC50 under setting [1] is 8.91 µM [rising, partial curve, poor fit]. The same measure, in the same setting: to `CCCOc1ccccc1C1SCC(=O)Nc2c1c(=O)[nH]n2C(C)CCC` (stereo not drawn) belongs 22.4 µM [falling, single point]; to `Cc1ccccc1NC(=O)COC(=O)c1cc(C)n(C2CC2)c1C`, 9.2 µM [falling, partial curve, poor fit]. Consider `CCOc1ccc(-c2cc(C)[n+](CCc3ccc(OC)c(OC)c3)c(-c3ccc(OCC)cc3)c2)cc1`, for which the AC50 under setting [1] was 17.8 µM [falling, single point]. With `Cc1cc(OCc2cc(C(=O)O)oc2C)c2c3c(c(=O)oc2c1)CCCC3`, the half-maximal activity concentration (AC50) under setting [1] is 0.282 µM [falling, full curve, poor fit].

Regarding `COc1ccccc1N1CCN(C2CCCN(C(=O)COc3ccccc3Cl)C2)CC1` (stereo not drawn), the AC50 under setting [1] is 35.5 µM [falling, single point]. Consider `CCCCCCCSc1cc(OC)c(CCN(C)C)cc1OC`, for which the AC50 under setting [1] was 35.5 µM [falling, single point]. Regarding `COc1ccccc1-n1c(-c2ccc(C)cc2)nc2ccccc2c1=O`, the half-maximal activity concentration (AC50) under setting [1] was 6.31 µM [rising, single point]. On the same count and under the same terms, to `Cc1cc(N2CCCCC2)ccc1C=C1C(=O)N(C)C(=S)N(C)C1=O` belongs 1.16 µM [rising, full curve, poor fit]. For the compound `Oc1cccc2nc3ccccc3nc12`, the AC50 was 28.2 µM [falling, partial curve, poor fit] under setting [1] and 35.5 µM [falling, single point] under setting [2]. Turning to `CCOP(=O)(c1ccc(N(C)C)cc1)C(O)c1ccc(OC)cc1` (stereo not drawn), under setting [1], the concentration at half-maximal activity (AC50) was 3.98 µM [rising, full curve, poor fit]. On to `NC(=O)CN1CCCC1=O`, for which the half-maximal activity concentration (AC50) under setting [1] is 7.08 µM [rising, partial curve]. Take `COc1ccc(C(NC(=O)C(C)C)c2ccc3cccnc3c2O)cc1` (stereo not drawn): the AC50 under setting [1] is 4.47 µM [falling, full curve, poor fit]. Regarding `C=CCc1cc(Cl)ccc1OC(=O)Nc1cccc(Cl)c1`, the AC50 under setting [1] was 35.5 µM [rising, single point].

As to `COc1ccccc1CN1CCN(C(=O)COc2ccccc2)CC1`, the AC50 under setting [1] is 25.9 µM [rising, single point]. On the same count and under the same terms, to `CCCNC(=O)N1[C@H]2CC[C@@H]1C(C(=O)OC)=C(c1ccc(-c3ccccc3)c(F)c1)C2` belongs 18.4 µM [falling, partial curve]; to `CN1CCN(Cc2c(F)cccc2Cl)CC1`, 35.5 µM [falling, single point]. As for `O=c1[nH]c(=O)n(C2CCCCC2)c(O)c1/C=C/C=Nc1ccccc1`, the AC50 under setting [1] is 3.55 µM [rising, partial curve].

`O=C1NC(=O)C(CCc2ccccn2)(Cc2cccc(Cl)c2Cl)C(=O)N1c1ccc(Br)cc1` (stereo not drawn): the AC50 is 9.2 µM [falling, partial curve] under setting [1] and 18.4 µM [rising, partial curve, poor fit] under setting [2]. `CCCCCCCCCCCCn1ccc(=N)cc1`: the AC50 is, setting by setting: under setting [1], 11.2 µM [falling, partial curve]; under setting [2], 17.8 µM [rising, partial curve, poor fit].

As to `O=C1/C(=C\c2ccncc2)N2CCC1CC2`, under setting [1], the AC50 was 10 µM [falling, partial curve, poor fit].

Take `CC12CCC(=O)C=C1CCC1C2CCC2(C)C(O)CCC12` (stereo not drawn): under setting [1], the AC50 is 17.8 µM [rising, single point]. Take `CC(=O)c1ccc(OC(=O)N(C)c2ccccc2)cc1`: the concentration at half-maximal activity (AC50) under setting [1] was 10 µM [rising, partial curve, poor fit]. On to `COC(=O)C1=C(c2ccccc2OCc2ccccc2)C[C@@H]2CC[C@H]1N2C(=O)NCCc1ccc(F)cc1`, for which the AC50 under setting [1] was 29.1 µM [falling, single point]. Regarding `OCC#CC[N+]1(CC#Cc2ccccc2)CCCC1`, the AC50 under setting [1] was 11.2 µM [rising, partial curve, poor fit]. On to `c1cc(CCN2CCCC2)ccn1`, for which, under setting [1], the AC50 was 0.112 µM [falling, full curve, poor fit]. For `Cc1nn(Cc2ccccc2)c(Cl)c1C(=O)Nc1ccc(OC(F)(F)F)cc1`, under setting [1], the AC50 was 0.0366 µM [rising, full curve, poor fit]. Still for that read-out and setting: to `COC(=O)C1=C(c2ccc(-c3ccccc3)c(F)c2)C[C@@H]2CC[C@H]1N2C(=O)NCCCOC(C)C` belongs 18.4 µM [falling, single point]. For the compound `CSCCC(N=Cc1c(O)n(-c2ccc(Br)cc2)c(=O)[nH]c1=O)C(=O)OC(C)(C)C` (stereo not drawn), under setting [1], the AC50 was 0.562 µM [falling, full curve, poor fit].

For the compound `CCOP(=O)(OCC)C(Nc1cc(Cl)cc(Cl)c1)c1cccc(O)c1` (stereo not drawn), the AC50 under setting [1] was 11.2 µM [falling, partial curve]. As for `Cc1ccc(Cn2cccc(C(=O)Nc3nc4ccc(C)cc4s3)c2=O)cc1`, the AC50 under setting [1] is 11.2 µM [falling, partial curve, poor fit]. Regarding `COc1ccccc1N1CCN(Cc2cnc(-c3ccccc3)[nH]2)CC1`, the AC50 under setting [1] was 12.6 µM [rising, partial curve].

As for `Cc1cccc(-n2c(O)c(C)c(=O)[nH]c2=S)c1`, under setting [1], the AC50 was 35.5 µM [falling, single point]. With `O=C1NC(=O)C2(Cc3ccccc3N3CCCC32)C(=O)N1c1ccc(Cl)cc1` (stereo not drawn), under setting [1], the AC50 was 14.1 µM [falling, single point]. For `O=C(O)CCn1cc(C=C2C(=O)NC(=S)NC2=O)c(-c2cccc(Cl)c2)n1`, the AC50 under setting [1] was 3.16 µM [falling, partial curve]. Still for that read-out and setting: to `CC(C)CC(c1nnnn1C(C)C)N1CCN(c2cccc(Cl)c2)CC1` (stereo not drawn) belongs 20 µM [falling, single point]. On to `Clc1ccc(CCC(Cn2ccnc2)Sc2c(Cl)cccc2Cl)cc1` (stereo not drawn), for which the AC50 under setting [1] was 1.84 µM [falling, partial curve, poor fit]. With `Cn1cnc([N+](=O)[O-])c1Sc1nnc(-c2cccnc2)n1C`, the AC50 under setting [1] is 35.5 µM [falling, single point].

On to `Nc1c(C(=O)OCc2ccccc2)c2nc3ccccc3nc2n1Cc1cccs1`, for which the AC50 under setting [1] was 1.3 µM [falling, full curve]. Still for that read-out and setting: the figure for `CN(C)C(=O)Oc1ccc2c(c1)O/C(=C\c1ccccc1)C2=O` is 1 µM [rising, partial curve, poor fit]. Take `O=C1NC(=O)N(c2ccccc2)C(=O)/C1=C/C=C/c1ccco1`: the AC50 is 17.8 µM [rising, partial curve, poor fit] under setting [1] and 35.5 µM [falling, single point] under setting [2]. In the case of `CC(C)(C#CC(=O)O)OOC(c1ccccc1)(c1ccccc1)c1ccccc1`, under setting [1], the AC50 was 35.5 µM [rising, single point]. Regarding `CN1C(=O)C(=Cc2ccc(OCC(=O)Nc3ccccc3)cc2)C(=O)N(C)C1=O`, the AC50 under setting [1] was 20 µM [falling, single point]. On to `Nc1c2c(nc3sc4c(c13)CCCCC4)CCCC2`, for which, under setting [1], the half-maximal activity concentration (AC50) is 29.1 µM [falling, single point]. With `COc1ccc(/C=C2\SC(=S)N(CC3CCCO3)C2=O)cc1` (stereo not drawn), the AC50 under setting [1] is 11.2 µM [rising, partial curve, poor fit].

In the case of `COC(=O)C1=C(c2ccc(-c3ccccc3)c(F)c2)C[C@@H]2CC[C@H]1N2C(=O)NC1CC1`, the AC50 under setting [1] is 20.6 µM [falling, single point]. On the same count and under the same terms, to `CC(=NCC1CCCO1)c1c(O)n(-c2ccc(C)cc2)c(=O)[nH]c1=O` (stereo not drawn) belongs 3.26 µM [rising, partial curve]; to `O=c1[nH]c(CN2CC=C(c3ccccc3)CC2)nc2scc(-c3cccs3)c12`, 3.16 µM [falling, single point].
